From publication PMC12715500
No constants are given. Whether binding was seen depends on the method and setting. In cells and extracts the contact can be indirect. Some entries that bind do so weakly or less than the wild type. Sequences can lack the tags named with a protein. Each block holds one molecule with its values, some of them ahead of it.

The chains behind the UniProt entries cited, without tags or fusion partners.
UniProt Q9Z2E1: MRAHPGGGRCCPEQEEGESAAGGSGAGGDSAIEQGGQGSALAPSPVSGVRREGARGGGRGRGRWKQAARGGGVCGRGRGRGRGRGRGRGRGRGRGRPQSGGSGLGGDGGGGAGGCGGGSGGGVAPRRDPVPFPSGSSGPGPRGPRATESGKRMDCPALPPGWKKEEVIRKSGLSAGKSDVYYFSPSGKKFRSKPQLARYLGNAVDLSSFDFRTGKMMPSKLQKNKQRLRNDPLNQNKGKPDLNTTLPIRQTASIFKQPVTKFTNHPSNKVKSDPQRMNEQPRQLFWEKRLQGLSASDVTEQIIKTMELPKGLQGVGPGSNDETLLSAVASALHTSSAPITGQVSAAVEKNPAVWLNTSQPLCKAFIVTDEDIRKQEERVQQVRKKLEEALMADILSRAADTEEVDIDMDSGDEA
UniProt Q5SVQ0: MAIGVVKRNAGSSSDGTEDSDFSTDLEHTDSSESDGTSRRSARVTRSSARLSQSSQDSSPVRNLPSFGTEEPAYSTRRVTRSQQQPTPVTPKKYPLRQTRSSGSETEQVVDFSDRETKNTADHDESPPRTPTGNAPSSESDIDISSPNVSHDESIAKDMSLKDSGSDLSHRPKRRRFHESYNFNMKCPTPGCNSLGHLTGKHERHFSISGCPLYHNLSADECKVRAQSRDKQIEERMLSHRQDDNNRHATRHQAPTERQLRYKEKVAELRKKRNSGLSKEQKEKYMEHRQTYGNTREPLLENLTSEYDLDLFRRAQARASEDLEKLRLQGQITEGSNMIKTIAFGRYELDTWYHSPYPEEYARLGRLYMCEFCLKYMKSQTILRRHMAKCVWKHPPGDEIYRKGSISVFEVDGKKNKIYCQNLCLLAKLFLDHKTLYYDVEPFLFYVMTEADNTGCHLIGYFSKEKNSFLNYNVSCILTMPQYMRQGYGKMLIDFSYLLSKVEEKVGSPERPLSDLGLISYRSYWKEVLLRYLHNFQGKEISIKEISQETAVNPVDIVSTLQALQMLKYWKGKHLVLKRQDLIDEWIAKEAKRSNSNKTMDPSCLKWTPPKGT

Biological target: GFP-tagged MBD2a (UniProt Q9Z2E1)
Test: co-IP; HEK cells co-transfected with GFP-tagged MBD2 isoform and RFP-tagged Hdac11 or Kat7; lysis in 20 mM Tris-HCl pH 8, 250 mM NaCl, 0.4% NP-40; GFP-binder beads 2 h at 4°C; washes with 150 mM NaCl; western blot with anti-RFP

binding: no binding
Molecule: RFP-tagged Kat7 (from UniProt Q5SVQ0 1-613) (enzyme)

binding: binds
B1: RFP-tagged Hdac11 (enzyme, UniProt Q91WA3 1-347)
chain: MPHATQLYQHVPEKRWPIVYSPRYNITFMGLEKLHPFDAGKWGKVINFLKEEKLLSDGMLVEAREASEEDLLVVHTRRYLNELKWSFVVATITEIPPVIFLPNFLVQRKVLRPLRTQTGGTIMAGKLAVERGWAINVGGGFHHCSSDRGGGFCAYADITLAIKFLFERVEGISRATIIDLDAHQGNGHERDFMGDKRVYIMDVYNRHIYPGDRFAKEAIRRKVELEWGTEDEEYLEKVERNVRRSLQEHLPDVVVYNAGTDVLEGDRLGGLSISPAGIVKRDEVVFRVVRAHDIPILMVTSGGYQKRTARIIADSILNLHDLGLIGPEFPCVSAQNSGIPLLSCAVP
